In article doi:10.1101/2022.04.28.489951:
These are yes or no findings as the source states them, for the method shown. In cells and extracts the contact can be indirect.

Chains of the proteins cited; added tags and fusions are not shown.
UniProt Q9HAV4: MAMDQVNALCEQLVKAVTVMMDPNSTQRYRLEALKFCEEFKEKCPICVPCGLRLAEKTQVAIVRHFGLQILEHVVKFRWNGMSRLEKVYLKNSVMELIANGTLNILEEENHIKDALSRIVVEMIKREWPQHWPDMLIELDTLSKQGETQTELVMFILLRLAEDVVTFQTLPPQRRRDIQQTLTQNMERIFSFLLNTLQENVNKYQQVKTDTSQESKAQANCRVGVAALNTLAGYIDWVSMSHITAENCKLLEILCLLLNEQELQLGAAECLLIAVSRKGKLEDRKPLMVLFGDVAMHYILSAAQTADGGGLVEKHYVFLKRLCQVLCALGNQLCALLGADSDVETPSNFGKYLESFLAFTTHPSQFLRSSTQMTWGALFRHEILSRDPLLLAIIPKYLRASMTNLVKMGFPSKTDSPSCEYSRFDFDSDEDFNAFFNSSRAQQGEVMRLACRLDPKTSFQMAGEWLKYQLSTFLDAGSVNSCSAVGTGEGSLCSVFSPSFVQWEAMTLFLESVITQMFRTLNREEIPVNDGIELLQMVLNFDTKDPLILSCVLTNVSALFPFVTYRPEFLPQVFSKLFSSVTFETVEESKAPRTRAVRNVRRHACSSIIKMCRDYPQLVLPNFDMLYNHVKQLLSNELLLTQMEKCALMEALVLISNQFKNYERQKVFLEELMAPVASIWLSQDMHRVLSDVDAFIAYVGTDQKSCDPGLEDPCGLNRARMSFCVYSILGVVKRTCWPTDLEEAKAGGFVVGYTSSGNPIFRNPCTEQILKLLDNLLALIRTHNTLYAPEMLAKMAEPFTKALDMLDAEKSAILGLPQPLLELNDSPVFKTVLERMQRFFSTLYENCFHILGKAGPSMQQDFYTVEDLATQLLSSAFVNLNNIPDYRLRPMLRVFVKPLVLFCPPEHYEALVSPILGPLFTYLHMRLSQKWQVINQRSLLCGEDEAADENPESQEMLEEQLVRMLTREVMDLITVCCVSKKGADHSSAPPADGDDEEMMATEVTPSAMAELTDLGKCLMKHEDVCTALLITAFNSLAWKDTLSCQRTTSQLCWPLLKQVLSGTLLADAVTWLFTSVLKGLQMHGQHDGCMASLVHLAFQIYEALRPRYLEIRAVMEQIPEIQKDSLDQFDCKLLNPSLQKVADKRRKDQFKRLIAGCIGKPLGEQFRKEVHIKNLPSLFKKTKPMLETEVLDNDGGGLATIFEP
UniProt O14980: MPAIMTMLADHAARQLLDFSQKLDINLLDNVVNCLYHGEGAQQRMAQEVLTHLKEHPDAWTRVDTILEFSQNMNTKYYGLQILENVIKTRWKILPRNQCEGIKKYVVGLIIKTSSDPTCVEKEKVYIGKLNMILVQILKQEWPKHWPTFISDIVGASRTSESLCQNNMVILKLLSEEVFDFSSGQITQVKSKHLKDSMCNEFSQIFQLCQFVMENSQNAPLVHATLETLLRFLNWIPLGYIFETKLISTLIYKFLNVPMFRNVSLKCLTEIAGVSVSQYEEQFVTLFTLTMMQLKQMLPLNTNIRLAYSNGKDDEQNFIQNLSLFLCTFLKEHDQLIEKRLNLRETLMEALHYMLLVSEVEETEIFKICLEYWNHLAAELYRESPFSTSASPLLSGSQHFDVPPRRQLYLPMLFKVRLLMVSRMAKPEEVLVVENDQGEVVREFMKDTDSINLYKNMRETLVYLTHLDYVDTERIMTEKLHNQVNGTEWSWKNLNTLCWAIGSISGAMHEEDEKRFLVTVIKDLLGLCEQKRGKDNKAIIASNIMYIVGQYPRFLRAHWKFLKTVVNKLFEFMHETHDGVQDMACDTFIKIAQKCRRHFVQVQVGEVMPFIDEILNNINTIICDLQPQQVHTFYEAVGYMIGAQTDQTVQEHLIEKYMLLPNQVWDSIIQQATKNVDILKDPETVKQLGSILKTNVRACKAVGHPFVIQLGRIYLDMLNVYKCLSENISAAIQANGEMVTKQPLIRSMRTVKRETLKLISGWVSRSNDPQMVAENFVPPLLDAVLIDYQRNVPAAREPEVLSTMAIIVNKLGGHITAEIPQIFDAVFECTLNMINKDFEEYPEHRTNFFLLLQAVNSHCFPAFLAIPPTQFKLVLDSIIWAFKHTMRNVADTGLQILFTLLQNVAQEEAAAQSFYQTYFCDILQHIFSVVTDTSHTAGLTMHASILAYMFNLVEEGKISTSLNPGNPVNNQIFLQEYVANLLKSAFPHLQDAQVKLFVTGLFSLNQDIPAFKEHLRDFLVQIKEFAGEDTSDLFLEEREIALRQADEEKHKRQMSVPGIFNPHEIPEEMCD

T1: La protein (autoantigen La) (human (endogenous in U2OS)) (UniProt P05455)
T1 sequence: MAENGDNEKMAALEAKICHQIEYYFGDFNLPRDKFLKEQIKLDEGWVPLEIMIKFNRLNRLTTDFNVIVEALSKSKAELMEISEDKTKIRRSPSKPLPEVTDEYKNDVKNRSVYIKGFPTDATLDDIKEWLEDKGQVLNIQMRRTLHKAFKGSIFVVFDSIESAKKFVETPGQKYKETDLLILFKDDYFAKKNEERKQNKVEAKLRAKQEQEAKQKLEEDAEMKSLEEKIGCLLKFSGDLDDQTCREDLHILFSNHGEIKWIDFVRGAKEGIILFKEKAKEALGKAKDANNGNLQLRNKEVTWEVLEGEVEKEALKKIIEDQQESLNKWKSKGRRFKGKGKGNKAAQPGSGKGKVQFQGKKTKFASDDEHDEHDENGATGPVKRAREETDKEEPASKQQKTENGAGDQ

B1: XPOT (exportin-t) (protein, UniProt O43592 1-962)
chain: MDEQALLGLNPNADSDFRQRALAYFEQLKISPDAWQVCAEALAQRTYSDDHVKFFCFQVLEHQVKYKYSELTTVQQQLIRETLISWLQAQMLNPQPEKTFIRNKAAQVFALLFVTEYLTKWPKFFFDILSVVDLNPRGVDLYLRILMAIDSELVDRDVVHTSEEARRNTLIKDTMREQCIPNLVESWYQILQNYQFTNSEVTCQCLEVVGAYVSWIDLSLIANDRFINMLLGHMSIEVLREEACDCLFEVVNKGMDPVDKMKLVESLCQVLQSAGFFSIDQEEDVDFLARFSKLVNGMGQSLIVSWSKLIKNGDIKNAQEALQAIETKVALMLQLLIHEDDDISSNIIGFCYDYLHILKQLTVLSDQQKANVEAIMLAVMKKLTYDEEYNFENEGEDEAMFVEYRKQLKLLLDRLAQVSPELLLASVRRVFSSTLQNWQTTRFMEVEVAIRLLYMLAEALPVSHGAHFSGDVSKASALQDMMRTLVTSGVSSYQHTSVTLEFFETVVRYEKFFTVEPQHIPCVLMAFLDHRGLRHSSAKVRSRTAYLFSRFVKSLNKQMNPFIEDILNRIQDLLELSPPENGHQSLLSSDDQLFIYETAGVLIVNSEYPAERKQALMRNLLTPLMEKFKILLEKLMLAQDEERQASLADCLNHAVGFASRTSKAFSNKQTVKQCGCSEVYLDCLQTFLPALSCPLQKDILRSGVRTFLHRMIICLEEEVLPFIPSASEHMLKDCEAKDLQEFIPLINQITAKFKIQVSPFLQQMFMPLLHAIFEVLLRPAEENDQSAALEKQMLRRSYFAFLQTVTGSGMSEVIANQGAENVERVLVTVIQGAVEYPDPIAQKTCFIILSKLVELWGGKDGPVGFADFVYKHIVPACFLAPLKQTFDLADAQTVLALSECAVTLKTIHLKRGPECVQYLQQEYLPSLQVAPEIIQEFCQALQQPDAKVFKNYLKVFFQRAKP

molecular target: T1, La protein (autoantigen La) (human (endogenous in U2OS)); test: co-IP

Molecule	binding
XPO5 (Exportin-5) (from UniProt Q9HAV4 1-1204)	no binding
XPO1 (Crm1) (from UniProt O14980 1-1071)	no binding
B1	no binding
